Publication PMC4624675

The chains behind the UniProt entries cited, without tags or fusion partners. Where a name states a change or a piece, a line headed by the entry shows the natural chain unless it says otherwise.
UniProt P26358: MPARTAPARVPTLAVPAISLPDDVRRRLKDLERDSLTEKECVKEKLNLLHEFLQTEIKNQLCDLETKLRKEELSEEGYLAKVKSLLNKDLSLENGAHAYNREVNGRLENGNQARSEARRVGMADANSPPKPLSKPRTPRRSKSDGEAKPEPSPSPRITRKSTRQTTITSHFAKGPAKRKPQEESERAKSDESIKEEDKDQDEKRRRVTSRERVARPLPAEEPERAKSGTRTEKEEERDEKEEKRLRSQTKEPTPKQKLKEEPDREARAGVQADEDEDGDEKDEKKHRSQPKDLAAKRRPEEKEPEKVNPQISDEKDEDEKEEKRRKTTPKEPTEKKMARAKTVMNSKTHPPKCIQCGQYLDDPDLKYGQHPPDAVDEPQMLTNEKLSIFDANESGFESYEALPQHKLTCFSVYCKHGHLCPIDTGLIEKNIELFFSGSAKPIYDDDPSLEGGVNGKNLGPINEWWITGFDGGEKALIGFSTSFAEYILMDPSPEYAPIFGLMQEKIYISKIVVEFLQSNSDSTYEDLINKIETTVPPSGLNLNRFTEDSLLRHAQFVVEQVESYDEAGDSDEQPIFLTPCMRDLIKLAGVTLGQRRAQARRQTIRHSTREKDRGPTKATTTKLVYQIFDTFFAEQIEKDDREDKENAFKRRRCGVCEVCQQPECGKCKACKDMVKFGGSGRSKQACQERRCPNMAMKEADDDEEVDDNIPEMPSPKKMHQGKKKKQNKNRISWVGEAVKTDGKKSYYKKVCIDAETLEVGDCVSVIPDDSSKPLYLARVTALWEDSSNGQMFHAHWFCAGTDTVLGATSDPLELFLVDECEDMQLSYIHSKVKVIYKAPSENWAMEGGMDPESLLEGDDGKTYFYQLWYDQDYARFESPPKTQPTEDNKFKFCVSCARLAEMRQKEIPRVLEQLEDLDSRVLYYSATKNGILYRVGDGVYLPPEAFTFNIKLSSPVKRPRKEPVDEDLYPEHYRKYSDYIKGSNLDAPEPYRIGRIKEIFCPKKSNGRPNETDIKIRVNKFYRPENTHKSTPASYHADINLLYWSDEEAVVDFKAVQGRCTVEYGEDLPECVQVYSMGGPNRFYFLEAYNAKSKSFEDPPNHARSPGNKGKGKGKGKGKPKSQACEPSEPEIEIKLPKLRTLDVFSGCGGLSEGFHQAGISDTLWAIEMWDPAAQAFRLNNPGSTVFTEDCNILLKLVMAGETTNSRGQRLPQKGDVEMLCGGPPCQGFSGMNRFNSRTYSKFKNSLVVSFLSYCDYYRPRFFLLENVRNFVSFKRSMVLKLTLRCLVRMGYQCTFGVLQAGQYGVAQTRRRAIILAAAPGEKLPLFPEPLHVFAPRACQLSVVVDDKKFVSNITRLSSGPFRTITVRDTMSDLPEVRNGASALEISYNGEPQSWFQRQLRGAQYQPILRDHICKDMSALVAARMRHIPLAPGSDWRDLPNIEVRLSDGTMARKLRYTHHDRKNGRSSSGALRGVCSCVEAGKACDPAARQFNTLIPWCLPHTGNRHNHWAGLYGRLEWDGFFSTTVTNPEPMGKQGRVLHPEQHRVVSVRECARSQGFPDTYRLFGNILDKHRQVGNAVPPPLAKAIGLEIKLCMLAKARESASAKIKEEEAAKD
UniProt Q2YD98: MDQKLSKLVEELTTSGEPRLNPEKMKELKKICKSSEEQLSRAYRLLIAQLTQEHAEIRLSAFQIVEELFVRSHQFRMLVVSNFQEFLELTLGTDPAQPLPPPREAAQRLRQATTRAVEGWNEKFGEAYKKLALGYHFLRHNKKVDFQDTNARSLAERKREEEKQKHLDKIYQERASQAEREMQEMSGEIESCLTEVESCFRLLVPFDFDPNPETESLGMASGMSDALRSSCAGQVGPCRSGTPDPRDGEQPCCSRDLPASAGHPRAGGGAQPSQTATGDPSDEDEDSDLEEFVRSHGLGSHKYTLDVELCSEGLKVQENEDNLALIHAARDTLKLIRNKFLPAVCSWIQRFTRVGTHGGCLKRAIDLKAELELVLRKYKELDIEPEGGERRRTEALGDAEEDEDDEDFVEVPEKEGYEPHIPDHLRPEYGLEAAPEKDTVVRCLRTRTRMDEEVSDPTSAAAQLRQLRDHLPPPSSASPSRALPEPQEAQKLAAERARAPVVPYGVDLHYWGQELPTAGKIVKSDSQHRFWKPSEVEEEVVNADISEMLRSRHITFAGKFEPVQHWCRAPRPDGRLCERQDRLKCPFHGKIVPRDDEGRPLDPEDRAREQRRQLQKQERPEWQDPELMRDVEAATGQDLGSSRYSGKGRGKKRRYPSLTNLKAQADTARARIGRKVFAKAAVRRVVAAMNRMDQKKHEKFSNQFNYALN
UniProt Q93009: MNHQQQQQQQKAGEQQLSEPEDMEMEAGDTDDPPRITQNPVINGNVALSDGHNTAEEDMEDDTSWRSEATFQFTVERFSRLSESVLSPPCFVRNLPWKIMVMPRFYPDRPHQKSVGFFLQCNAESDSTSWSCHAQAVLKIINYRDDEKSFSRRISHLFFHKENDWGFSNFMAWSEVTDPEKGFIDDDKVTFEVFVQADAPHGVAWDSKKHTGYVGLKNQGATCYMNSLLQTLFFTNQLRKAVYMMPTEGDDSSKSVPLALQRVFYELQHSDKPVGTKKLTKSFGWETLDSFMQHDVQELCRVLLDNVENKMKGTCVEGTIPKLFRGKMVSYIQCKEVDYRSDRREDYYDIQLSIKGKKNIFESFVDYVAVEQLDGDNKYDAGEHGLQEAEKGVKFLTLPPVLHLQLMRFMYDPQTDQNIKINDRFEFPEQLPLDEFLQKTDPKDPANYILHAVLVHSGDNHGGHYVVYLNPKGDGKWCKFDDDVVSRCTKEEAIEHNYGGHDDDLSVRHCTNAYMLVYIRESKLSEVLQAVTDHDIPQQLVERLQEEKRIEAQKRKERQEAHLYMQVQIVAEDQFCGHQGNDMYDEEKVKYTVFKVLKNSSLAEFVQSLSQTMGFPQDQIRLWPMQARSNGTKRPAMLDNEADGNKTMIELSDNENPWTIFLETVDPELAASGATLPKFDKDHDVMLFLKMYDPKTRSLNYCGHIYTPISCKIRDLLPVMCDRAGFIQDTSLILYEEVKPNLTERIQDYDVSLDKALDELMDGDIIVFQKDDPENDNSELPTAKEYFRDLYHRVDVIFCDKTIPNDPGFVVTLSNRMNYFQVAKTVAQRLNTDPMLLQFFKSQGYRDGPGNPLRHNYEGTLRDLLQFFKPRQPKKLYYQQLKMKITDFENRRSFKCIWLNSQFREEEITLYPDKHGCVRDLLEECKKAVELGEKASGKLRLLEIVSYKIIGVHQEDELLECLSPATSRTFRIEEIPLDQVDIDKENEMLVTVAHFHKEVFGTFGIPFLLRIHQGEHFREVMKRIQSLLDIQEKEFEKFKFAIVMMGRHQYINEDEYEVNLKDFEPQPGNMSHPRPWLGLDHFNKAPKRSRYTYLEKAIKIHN

Assays:
[1] = biological target: T1, UHRF1 (642–674) (GST pull-down bait) (human) (UniProt Q96T88); experiment: pull-down; GST-tagged peptides incubated with TUD^USP7 (wild type or M1) and immobilized on glutathione resin; bound proteins on SDS-PAGE, Coomassie blue staining; both purified
T1 sequence: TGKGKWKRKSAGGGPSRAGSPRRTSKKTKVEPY

FLAG-tagged MCM4 = biological target: T2, FLAG-tagged MCM4 (UniProt P33991); experiment: co-IP; HEK293T cells transiently co-transfected with FLAG-tagged proteins and GFP-tagged USP7 (wild-type and mutants), immunoprecipitation, immunoblotting; which tag was precipitated is not told
T2 sequence: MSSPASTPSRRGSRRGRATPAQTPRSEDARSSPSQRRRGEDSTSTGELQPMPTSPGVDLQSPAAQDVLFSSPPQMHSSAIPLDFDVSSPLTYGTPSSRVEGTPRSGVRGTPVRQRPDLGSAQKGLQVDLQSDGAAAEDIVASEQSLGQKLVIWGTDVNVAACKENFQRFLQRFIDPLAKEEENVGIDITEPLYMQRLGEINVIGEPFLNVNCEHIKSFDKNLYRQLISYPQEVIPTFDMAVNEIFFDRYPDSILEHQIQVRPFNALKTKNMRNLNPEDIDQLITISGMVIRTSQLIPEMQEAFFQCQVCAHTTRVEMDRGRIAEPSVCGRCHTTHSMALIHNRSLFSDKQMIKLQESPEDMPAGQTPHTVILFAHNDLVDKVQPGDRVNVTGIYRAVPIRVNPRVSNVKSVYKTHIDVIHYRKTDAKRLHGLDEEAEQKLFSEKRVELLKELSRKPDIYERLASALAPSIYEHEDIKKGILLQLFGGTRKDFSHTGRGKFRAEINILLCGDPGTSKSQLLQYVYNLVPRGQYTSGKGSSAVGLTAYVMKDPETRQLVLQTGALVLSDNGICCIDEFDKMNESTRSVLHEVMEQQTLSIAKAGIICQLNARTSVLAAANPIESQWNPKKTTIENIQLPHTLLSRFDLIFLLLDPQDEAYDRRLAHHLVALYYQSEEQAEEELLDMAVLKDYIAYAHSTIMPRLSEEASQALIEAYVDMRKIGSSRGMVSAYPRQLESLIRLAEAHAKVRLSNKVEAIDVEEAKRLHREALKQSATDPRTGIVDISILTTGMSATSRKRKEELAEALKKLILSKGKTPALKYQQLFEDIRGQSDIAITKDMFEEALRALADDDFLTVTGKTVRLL

FLAG-tagged MCMBP = biological target: T3, FLAG-tagged MCMBP (UniProt Q9BTE3); experiment: as above
T3 sequence: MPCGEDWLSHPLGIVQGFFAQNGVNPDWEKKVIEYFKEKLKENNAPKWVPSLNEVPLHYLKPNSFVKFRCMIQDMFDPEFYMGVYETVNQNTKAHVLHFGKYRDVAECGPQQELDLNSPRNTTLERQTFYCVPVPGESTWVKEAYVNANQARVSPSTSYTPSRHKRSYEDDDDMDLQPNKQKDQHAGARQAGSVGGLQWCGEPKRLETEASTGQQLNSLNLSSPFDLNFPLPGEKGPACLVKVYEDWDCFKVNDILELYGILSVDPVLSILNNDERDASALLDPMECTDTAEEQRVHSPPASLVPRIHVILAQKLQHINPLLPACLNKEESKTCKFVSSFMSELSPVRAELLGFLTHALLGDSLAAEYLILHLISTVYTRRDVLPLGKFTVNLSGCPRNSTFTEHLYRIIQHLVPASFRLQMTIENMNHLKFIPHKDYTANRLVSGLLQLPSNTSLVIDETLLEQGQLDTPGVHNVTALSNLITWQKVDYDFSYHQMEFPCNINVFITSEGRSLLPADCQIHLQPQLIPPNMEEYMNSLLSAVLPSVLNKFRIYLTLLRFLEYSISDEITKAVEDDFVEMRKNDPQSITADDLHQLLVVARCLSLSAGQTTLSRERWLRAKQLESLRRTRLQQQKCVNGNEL

FLAG-tagged WDR21a = biological target: T4, FLAG-tagged WDR21a (UniProt Q8WV16); experiment: as above
T4 sequence: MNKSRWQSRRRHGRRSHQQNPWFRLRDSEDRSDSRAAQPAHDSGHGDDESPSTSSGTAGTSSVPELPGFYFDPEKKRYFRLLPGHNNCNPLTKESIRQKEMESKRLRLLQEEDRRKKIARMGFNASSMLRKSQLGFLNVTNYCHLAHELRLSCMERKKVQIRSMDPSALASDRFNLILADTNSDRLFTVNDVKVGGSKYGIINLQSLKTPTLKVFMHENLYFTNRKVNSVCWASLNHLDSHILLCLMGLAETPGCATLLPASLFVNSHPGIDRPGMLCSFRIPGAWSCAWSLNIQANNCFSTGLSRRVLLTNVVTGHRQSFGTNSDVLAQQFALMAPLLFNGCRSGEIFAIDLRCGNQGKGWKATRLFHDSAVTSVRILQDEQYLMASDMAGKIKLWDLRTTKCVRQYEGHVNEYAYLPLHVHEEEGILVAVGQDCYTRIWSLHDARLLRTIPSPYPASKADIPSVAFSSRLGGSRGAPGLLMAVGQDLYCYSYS

FLAG-tagged DNMT1 = FLAG-tagged DNMT1 (UniProt P26358); experiment: as above
FLAG-tagged UVSSA = FLAG-tagged UVSSA (UniProt Q2YD98); experiment: as above

| binding [1] | Substance | binding (FLAG-tagged MCM4) | binding (FLAG-tagged MCMBP) | binding (FLAG-tagged WDR21a) | binding (FLAG-tagged DNMT1) | binding (FLAG-tagged UVSSA) |
| --- | --- | --- | --- | --- | --- | --- |
| binds | C-terminal Tandem UBL domain of human USP7 (TUD^USP7), wild type (domain or fragment) | – | – | – | – | – |
| – | GFP-tagged full-length USP7 mutant M1 (M1^USP7-FL, D758A/E759A/E764A) (from UniProt Q93009) (enzyme) | binds | binds | binds | no binding | binds |

No constants are given. Whether binding was seen depends on the method and setting. For part of these data: Binding calls can cover weak binding; strength is not graded here. For part of these data: Tags and fused reporters may be left off the sequences shown. For part of these data: In cells and extracts the contact can be indirect.
